Test results from PMC12623955.
Results are given in words; binding and its absence hold for the method and conditions named. Binding seen in cells or lysates may run through a third protein. Binding can be weak; no strength is given.

T1: Heme oxygenase 1 (HMOX1) (rat (endogenous in PC12)) (UniProt P06762)
T1 sequence: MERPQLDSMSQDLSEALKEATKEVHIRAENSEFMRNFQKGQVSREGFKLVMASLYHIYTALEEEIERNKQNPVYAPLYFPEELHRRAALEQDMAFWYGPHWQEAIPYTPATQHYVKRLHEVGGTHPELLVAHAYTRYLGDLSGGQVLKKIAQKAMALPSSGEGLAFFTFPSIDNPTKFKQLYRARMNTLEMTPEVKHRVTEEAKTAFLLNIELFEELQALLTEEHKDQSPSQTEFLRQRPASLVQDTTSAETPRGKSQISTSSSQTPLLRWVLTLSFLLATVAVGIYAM


How the values were obtained:
[1] = biological target: T1, Heme oxygenase 1 (HMOX1) (rat (endogenous in PC12)); test: co-IP; endogenous proteins in PC12 cell lysates, under physiological conditions or after OGD/R (OGD: 6 h; R: 24 h); IP with anti-HMOX1, anti-BNIP3 or anti-IgG and protein A/G magnetic beads, overnight at 4 °C; western blotting
[2] = biological target: BNIP3 (rat (endogenous in PC12)); test: as above

binding [1]	binding [2]	Molecule
binds	–	BNIP3 (rat (endogenous in PC12))
–	binds	Heme oxygenase 1 (HMOX1) (enzyme, UniProt P06762 1-289) MERPQLDSMSQDLSEALKEATKEVHIRAENSEFMRNFQKGQVSREGFKLVMASLYHIYTALEEEIERNKQNPVYAPLYFPEELHRRAALEQDMAFWYGPHWQEAIPYTPATQHYVKRLHEVGGTHPELLVAHAYTRYLGDLSGGQVLKKIAQKAMALPSSGEGLAFFTFPSIDNPTKFKQLYRARMNTLEMTPEVKHRVTEEAKTAFLLNIELFEELQALLTEEHKDQSPSQTEFLRQRPASLVQDTTSAETPRGKSQISTSSSQTPLLRWVLTLSFLLATVAVGIYAM
